# Laboratory results published in PMC8124558.
# No constants are given. Whether binding was seen depends on the method and setting.
# Molecular target: fibronectin (commercial recombinant protein) (human)
# Experiment: ELISA; solid-phase microplate protein-binding assay: 96-well plate coated with 4 μg/mL recombinant protein at 4 °C overnight, blocked with 5% BSA/PBS; biotinylated peptide overnight at 4 °C (peptides at 500 μg/mL); streptavidin-HRP, absorbance at 450 nm; n = 2; both purified
row,Binder,binding
1,TPMMPETSQRFK (biotin at the N-terminal) [peptide-88],no binding (tested: 500 μg/mL)
2,LPSTQPALPPNA (biotinylated at the N-terminal) [biotinylated scrambled peptide],no binding (tested: 500 μg/mL)
